Experimental data from US20230227577A1 (MYTHIC THERAPEUTICS, published 2023).
No constants are given. Whether binding was seen depends on the method and setting. Some entries that bind do so weakly or less than the wild type. One block for each binder: values may come before it.

Target: cynomolgus DLL3 protein (cynomolgus)
Assay: Octet (DLL3 on AR2G tips), ELISA and FACS; values only in FIG. 3

B4: 2HCE117 anti-DLL3 VHH (VHH)
VHH: QVQLQESGGGLVQPGGSLRLSCAASGFTFSSYAMSWVRQAPGKGLEWVSDINSGGGSTYYADSVKGRFTISRDNAKNTLYLQMDSLKPEDTAVYYCATPFEIGSWGQGTQVTVSS
notes: In the binning assay it was used as a periplasmic extract
binding: binds

B5: 2HCE27 anti-DLL3 VHH (VHH)
VHH: QVQLQESGGGLVQAGGSLRLSCAASGRTFRSYAMGWFRQAPGKEREFIAVIIMSDGSTSYADSVKGRFTISRDNAKNTLYLQMNSLKPEDTAVYYCAARRDYFTGVYDYWGQGTQVTVSS
notes: In the binning assay it was used as a periplasmic extract; also called anti-DLL3 (2HCE27)
binding: binds

Further lines, results first:

binding: binds
B1: 3HCE4 anti-DLL3 VHH (VHH)
VHH: QVQLQESGGGLVQAGASLKLSCAVSGRAGSSYDMGWLRQAPGKEREFVAIITWSGNTAYKDSVKGRFIISRDNAKNTVYLEMNSLAPEDTAVYYCAAALSEKKYEYWGQGTQVTVSS
notes: as for B4

binding: binds
B2: 3HCE87 anti-DLL3 VHH (VHH)
VHH: QVQLQESGGGLVQAGGSLRLSCAASGFIFDDYIIGWFRQAPGKEREFVAAISWSGSATAYADSVKGRFTISRDNAKNTLYLQMNTLKPEDTAVYYCAASSRGPYNSGSSYDYWGQGTQVTVSS
notes: as for B4

binding: binds
B3: 3HCE56 anti-DLL3 VHH (VHH)
VHH: QVQLQESGGGLVQAGGSLRLSCAASGRTFSVDAMGWLRQAPGKEREFVVVIDWTGGSTAYADSVKGRFTISRDNARNTVYLQMNNLKPEDTGVYYCAARERSRTAYDYWGQGTQVTVSS
notes: as for B4
